# Assay results: article PMC3044754
# How the values were obtained:
# [1] = molecular target: GFP-tagged WT1 (pGFP-WT1) (UniProt P19544); assay: co-IP; human podocytes co-transfected for 48 h with Flag-tagged PINCH1 constructs and GFP-tagged WT1 constructs; lysates immunoprecipitated with anti-GFP overnight at 4°C, protein A/G Plus-Agarose, blotted with anti-Flag
# [2] = molecular target: GFP-tagged WT1-CT, C-terminal fragment of WT1 (280-429 aa) (UniProt P19544); assay: as above
# [3] = molecular target: GFP-tagged WT1-NT, N-terminal fragment of WT1 (1-315 aa) (UniProt P19544); assay: as above
# [4] = molecular target: GST-WT1 fusion protein (UniProt P19544); assay: pull-down; purified GST-WT1 on glutathione-agarose beads incubated with podocyte lysate overnight at 4°C; washed three times with lysis buffer; blotted with anti-PINCH1; only the target purified
binding [1],binding [2],binding [3],binding [4],Substance
binds,binds,no binding,–,Flag-tagged wild-type PINCH1 (pFlag-PINCH1-wt) (from UniProt P48059 1-325)
–,–,–,binds,endogenous PINCH1 (from UniProt P48059 1-325)

# Results are given in words; binding and its absence hold for the method and conditions named. In cells and extracts the contact can be indirect. For some of these results: Binding calls can cover weak binding; strength is not graded here.
